Results are given in words; binding and its absence hold for the method and conditions named. In cells and extracts the contact can be indirect. Some binding calls cover weakened binding; strength is not graded here.
Target: DEC1 (mouse (endogenous in MIN6)) (UniProt O35185)
Test: co-IP

Chains of the proteins cited; added tags and fusions are not shown.
UniProt O35185: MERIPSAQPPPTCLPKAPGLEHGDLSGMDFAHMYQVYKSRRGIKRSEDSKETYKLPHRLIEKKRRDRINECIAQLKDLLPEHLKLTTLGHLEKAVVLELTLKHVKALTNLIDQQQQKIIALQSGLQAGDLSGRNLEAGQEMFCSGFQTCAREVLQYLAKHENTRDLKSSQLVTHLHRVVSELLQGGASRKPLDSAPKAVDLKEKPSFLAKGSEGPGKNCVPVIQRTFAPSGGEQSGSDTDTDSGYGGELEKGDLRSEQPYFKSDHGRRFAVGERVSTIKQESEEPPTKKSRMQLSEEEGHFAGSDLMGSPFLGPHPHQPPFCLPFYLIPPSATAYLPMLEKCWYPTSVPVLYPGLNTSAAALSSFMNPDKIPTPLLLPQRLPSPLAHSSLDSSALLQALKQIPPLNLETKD
UniProt Q60974: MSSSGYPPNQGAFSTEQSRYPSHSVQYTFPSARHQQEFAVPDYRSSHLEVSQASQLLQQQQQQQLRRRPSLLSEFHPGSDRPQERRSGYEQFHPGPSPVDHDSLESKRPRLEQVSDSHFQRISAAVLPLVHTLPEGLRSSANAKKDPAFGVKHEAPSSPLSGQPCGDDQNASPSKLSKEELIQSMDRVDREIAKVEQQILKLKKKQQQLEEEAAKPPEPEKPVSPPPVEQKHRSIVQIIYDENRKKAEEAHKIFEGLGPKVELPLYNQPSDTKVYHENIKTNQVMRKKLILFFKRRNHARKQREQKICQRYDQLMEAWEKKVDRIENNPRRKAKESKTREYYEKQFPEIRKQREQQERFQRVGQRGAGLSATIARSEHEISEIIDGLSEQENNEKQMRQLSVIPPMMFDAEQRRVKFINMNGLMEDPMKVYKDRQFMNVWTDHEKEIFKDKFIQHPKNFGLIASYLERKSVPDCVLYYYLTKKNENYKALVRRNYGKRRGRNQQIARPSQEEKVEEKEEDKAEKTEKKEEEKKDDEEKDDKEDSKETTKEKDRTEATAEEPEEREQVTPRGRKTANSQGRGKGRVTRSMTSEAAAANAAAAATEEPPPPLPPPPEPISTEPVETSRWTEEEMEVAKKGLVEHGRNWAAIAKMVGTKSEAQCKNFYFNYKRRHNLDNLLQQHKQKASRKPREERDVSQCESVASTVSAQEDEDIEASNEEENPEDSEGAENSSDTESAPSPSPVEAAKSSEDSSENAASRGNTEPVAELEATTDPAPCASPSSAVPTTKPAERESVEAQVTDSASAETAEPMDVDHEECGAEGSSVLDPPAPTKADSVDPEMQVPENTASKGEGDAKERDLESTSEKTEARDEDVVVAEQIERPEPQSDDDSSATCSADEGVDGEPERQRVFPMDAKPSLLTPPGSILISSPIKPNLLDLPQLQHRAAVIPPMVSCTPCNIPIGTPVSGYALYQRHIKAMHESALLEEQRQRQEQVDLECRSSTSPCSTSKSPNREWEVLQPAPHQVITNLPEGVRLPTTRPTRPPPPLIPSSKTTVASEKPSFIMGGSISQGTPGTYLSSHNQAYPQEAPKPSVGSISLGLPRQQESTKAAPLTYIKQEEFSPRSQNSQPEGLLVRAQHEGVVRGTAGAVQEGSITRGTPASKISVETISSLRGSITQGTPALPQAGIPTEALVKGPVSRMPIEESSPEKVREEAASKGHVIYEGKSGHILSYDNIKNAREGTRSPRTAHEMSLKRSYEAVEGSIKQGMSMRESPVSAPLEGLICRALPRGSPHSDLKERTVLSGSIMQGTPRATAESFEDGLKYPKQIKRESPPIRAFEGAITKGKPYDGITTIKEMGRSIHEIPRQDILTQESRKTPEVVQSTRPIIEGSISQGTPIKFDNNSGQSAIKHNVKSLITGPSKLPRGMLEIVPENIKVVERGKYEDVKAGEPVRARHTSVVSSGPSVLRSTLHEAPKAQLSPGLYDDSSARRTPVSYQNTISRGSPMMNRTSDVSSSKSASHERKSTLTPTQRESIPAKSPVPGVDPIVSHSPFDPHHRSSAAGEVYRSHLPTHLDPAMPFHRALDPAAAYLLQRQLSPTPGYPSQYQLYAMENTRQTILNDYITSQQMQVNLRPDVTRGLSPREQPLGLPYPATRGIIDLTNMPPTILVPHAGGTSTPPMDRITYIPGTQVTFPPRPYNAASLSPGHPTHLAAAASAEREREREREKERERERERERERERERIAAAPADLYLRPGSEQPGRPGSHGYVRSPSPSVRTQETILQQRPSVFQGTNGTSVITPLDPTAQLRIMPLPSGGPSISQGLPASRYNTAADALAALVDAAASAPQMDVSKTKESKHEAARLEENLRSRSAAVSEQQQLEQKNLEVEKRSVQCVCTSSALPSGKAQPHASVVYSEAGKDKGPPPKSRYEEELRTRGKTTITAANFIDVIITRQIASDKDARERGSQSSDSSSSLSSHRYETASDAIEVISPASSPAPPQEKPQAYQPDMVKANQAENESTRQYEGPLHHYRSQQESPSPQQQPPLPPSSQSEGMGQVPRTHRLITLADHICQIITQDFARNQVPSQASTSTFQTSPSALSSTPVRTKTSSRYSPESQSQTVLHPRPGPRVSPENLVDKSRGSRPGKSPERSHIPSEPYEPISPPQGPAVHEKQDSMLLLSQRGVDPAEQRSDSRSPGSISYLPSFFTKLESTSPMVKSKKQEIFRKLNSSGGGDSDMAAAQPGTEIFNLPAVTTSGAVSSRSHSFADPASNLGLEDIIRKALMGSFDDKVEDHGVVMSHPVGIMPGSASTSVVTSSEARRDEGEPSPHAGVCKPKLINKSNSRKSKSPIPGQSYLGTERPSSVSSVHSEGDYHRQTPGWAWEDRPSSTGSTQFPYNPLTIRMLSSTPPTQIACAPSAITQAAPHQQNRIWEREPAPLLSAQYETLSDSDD

Substance: NCOR1 (from UniProt Q60974 1-2453)
- binding: binds
